Data taken from PubChem BioAssay AID1487 (National Center for Advancing Translational Sciences (NCATS), 2009).
This is one part of the list. These are further read-outs of the screen, such as a control signal, another cell line or another target. No call is given for them. The list favours compounds with an active or inconclusive main result. Potencies come from curve fits of mixed quality, noted in brackets.

Test: qHTS Assay for Modulators of Lamin A Splicing
Conditions: HeLa LMNA splicing GFP/RFP minigene ratio, 48 h
Procedure, shortened: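 S3 HeLa stable clones carrying a lamin A-EGFP splicing minigene plus DsRed2 were seeded at 600 cells/well in Opti-MEM with 2% FBS, pin-dosed and incubated 48 h at 37°C. Acumen cytometry (488 nm) gave the GFP/RFP total-intensity ratio.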

[1] = measured here: RFP viability control channel
[2] = measured here: GFP splicing reporter channel

Compound: C=CCNc1nnc(SC2CC(=O)N(c3ccc(OCCC)cc3)C2=O)s1 (stereo unspecified)
- AC50 [1]: 31.6 µM [rising, single point]

Compound: O=C(Cc1ccccc1)Nc1ccc(SC(F)F)cc1
- AC50 [1]: 8.91 µM [rising, partial curve, poor fit]

Compound: Cc1cccc(OCCCC(=O)N2CCCc3ccccc32)c1C
- AC50 [1]: 35.5 µM [rising, single point]

Compound: COc1ccc(-c2cc(-c3nnc(COC(=O)C4CC4C)o3)c3ccccc3n2)cc1OC (stereo unspecified)
- AC50 [1]: 14.1 µM [rising, partial curve]

Compound: Cc1cccc(-c2noc(-c3ccc(Cl)cc3[N+](=O)[O-])n2)c1
- AC50 [1]: 0.01 µM [rising, full curve, poor fit]

Compound: N=c1c2c(-c3ccccc3)c(-c3ccccc3)n(Cc3ccco3)c2ncn1CCCn1ccnc1
- AC50 [2]: 15.8 µM [rising, partial curve, poor fit]
- AC50 [1]: 8.91 µM [rising, partial curve]

Compound: CCOC(=O)c1ccc(NC(=O)CN2CCN(Cc3ccccc3)CC2)cc1
- AC50 [2]: 7.08 µM [falling, full curve, poor fit]
- AC50 [1]: 7.94 µM [falling, full curve, poor fit]

Compound: CCCC(C)NC(=O)COc1ccc(S(=O)(=O)c2ccc(OCC(=O)NC(C)CCC)cc2)cc1 (stereo unspecified)
- AC50 [2]: 12.6 µM [rising, single point]
- AC50 [1]: 22.4 µM [rising, single point]

Compound: CC(NC(=S)Nc1ccc(S(N)(=O)=O)cc1)c1ccc2c(c1)OCO2 (stereo unspecified)
- AC50 [2]: 14.1 µM [rising, partial curve, poor fit]
- AC50 [1]: 22.4 µM [rising, single point]

Compound: Cc1ccc(S(=O)(=O)N2CCC(=O)N(C(COCc3ccc(Cl)cc3)Cc3ccccc3)CC2)cc1 (stereo unspecified)
- AC50 [2]: 17.8 µM [rising, single point]
- AC50 [1]: 22.4 µM [rising, single point]

Compound: Cc1nc(SCC(=O)N2CCc3ccccc3C2)c2c(C)c(C)sc2n1
- AC50 [1]: 14.1 µM [rising, single point]

Compound: O=C(Cc1ccccc1)N/N=C/c1ccc(Cl)cc1Cl
- AC50 [1]: 10 µM [rising, partial curve]

Compound: O=C(Nc1nn[nH]n1)c1ccc(S(=O)(=O)N2CCCCC2)cc1
- AC50 [1]: 0.562 µM [rising, full curve, poor fit]

Compound: Cc1cccc(NC(=O)c2ccc(-n3cccn3)c([N+](=O)[O-])c2)c1
- AC50 [2]: 35.5 µM [rising, single point]
- AC50 [1]: 14.1 µM [rising, single point]

Compound: N#Cc1nc(-c2ccc(OCc3ccccc3)cc2)oc1N1CCC(C(N)=O)CC1
- AC50 [2]: 5.62 µM [rising, single point]

Compound: S=C1SCN(Cc2ccccc2)CN1Cc1ccccc1
- AC50 [2]: 0.562 µM [falling, full curve, poor fit]
- AC50 [1]: 0.0316 µM [falling, full curve, poor fit]

Compound: O=C(NC(NC(=S)Nc1c(Cl)cc(Cl)cc1Cl)C(Cl)(Cl)Cl)OCc1ccccc1 (stereo unspecified)
- AC50 [1]: 2.82 µM [rising, full curve, poor fit]

Compound: Cc1cccc(C)c1OCCNC(=O)OCc1ccccc1
- AC50 [2]: 8.91 µM [falling, partial curve, poor fit]

Compound: Oc1ccc(Cl)cc1C1=NNC(c2ccc(Cl)cc2)C1 (stereo unspecified)
- AC50 [1]: 35.5 µM [rising, single point]

Compound: CCOc1ccc2c(c1)OC(c1ccc(OC)cc1)(C(F)(F)F)NC2=O (stereo unspecified)
- AC50 [1]: 3.55 µM [rising, partial curve, poor fit]

Compound: Cn1c(SCc2c(Cl)cccc2Cl)nnc1-c1cccs1
- AC50 [2]: 11.2 µM [rising, single point]

Compound: CCn1c(/C=C/c2ccccc2)nc2ccccc2c1=O
- AC50 [2]: 35.5 µM [falling, single point]

Compound: CC(OC(=O)c1cc(S(=O)(=O)Nc2ccc(F)cc2)ccc1Cl)C(=O)Nc1ccc2c(c1)OCCO2 (stereo unspecified)
- AC50 [1]: 35.5 µM [rising, single point]

Compound: COc1cc(C(=O)Nc2nc3ccc(S(C)(=O)=O)cc3s2)cc(OC)c1C
- AC50 [1]: 4.47 µM [falling, single point]

Compound: COc1cc(NC(=O)c2c(F)c(F)c(F)c(F)c2F)c(OC)cc1Cl
- AC50 [1]: 7.94 µM [rising, partial curve, poor fit]

Compound: Cn1c(SCC(=O)N2CCCc3ccccc32)nnc1-c1ccccc1
- AC50 [2]: 0.501 µM [rising, full curve]

Compound: NC(=O)c1nn(-c2ccccc2)nc1NC(=O)CSc1nnnn1-c1ccc(Cl)cc1
- AC50 [2]: 1.58 µM [rising, partial curve]

Compound: O=C(CC(=O)c1cc(Cl)ccc1O)c1ccccc1
- AC50 [1]: 35.5 µM [rising, single point]

Compound: Cc1cc(/C=C2/SC(=O)NC2=O)c(C)n1-c1ccc(N2CCOCC2)cc1
- AC50 [1]: 8.91 µM [rising, partial curve, poor fit]

Compound: C=CCSc1nc2c(c(=N)n1CC=C)C1CCCC1S2 (stereo unspecified)
- AC50 [2]: 14.1 µM [rising, partial curve, poor fit]
- AC50 [1]: 25.1 µM [rising, single point]

Compound: CCN(CC)CCCn1c(C)cc2c(c1=O)C(c1cccc(Cl)c1)C(C#N)=C(N)O2 (stereo unspecified)
- AC50 [2]: 11.2 µM [rising, single point]
- AC50 [1]: 7.08 µM [rising, single point]

Compound: Cc1cc([N+](=O)[O-])ccc1NC(=O)CN1C2CCC1CC(NC(=O)NC13CC4CC(CC(C4)C1)C3)C2 (stereo unspecified)
- AC50 [2]: 10 µM [falling, partial curve]
- AC50 [1]: 8.91 µM [falling, partial curve, poor fit]

Compound: CCn1c2ccccc2c2cc(CC(N)=O)ccc21
- AC50 [1]: 35.5 µM [falling, single point]

Compound: O=C(NCc1ccco1)c1ccccc1NS(=O)(=O)c1ccc(Cl)s1
- AC50 [1]: 15.8 µM [rising, single point]

Compound: CC1CCCCN1S(=O)(=O)c1ccc(C(=O)Nc2sc3c(c2C(N)=O)CC(C)(C)NC3(C)C)cc1 (stereo unspecified)
- AC50 [1]: 15.8 µM [rising, single point]

Compound: O=C(c1cccc(C(F)(F)F)c1)C1CCCN(Cc2cccn2-c2ncccn2)C1 (stereo unspecified)
- AC50 [1]: 35.5 µM [falling, single point]
